Test results published in US20230293644A1, “ANTI-INFLAMMATORY PEPTIDES AND COMPOSITION COMPRISING THE SAME” (Gemvax & KAEL Co., Ltd., priority 2012, published 2023).
For at least one compound, name, drawing or mass did not settle the structure.

Test system: PI3K
Assay: Effect of PI3K-inhibitor LY294002 on cell viability of PEP 1 treated cells
Assay type: cell-based, rat
Settings: LY294002 added to PEP 1 treated cells

For `O=c1cc(N2CCOCC2)oc2c(-c3ccccc3)cccc12` [LY294002], the “increased cell viability after treating with PEP 1” value was “decreased”.
